Earlier results as cited in PMC8383301 (Molecular Pharmaceutics, 2021).

Test system: P-gp
Settings: rat brain microvessels; after 24 h of abstinence; cited from earlier work

Which “increase of P-gp expression compared to control animals” value does the source give for `CN1CC[C@]23c4c5ccc(O)c4O[C@H]2[C@@H](O)C=C[C@H]3[C@H]1C5` [morphine] here?
The value was 1.5 times.
